This assay has as its target T1, soluble human ICAM-R (human) (UniProt P32942).
T1 sequence: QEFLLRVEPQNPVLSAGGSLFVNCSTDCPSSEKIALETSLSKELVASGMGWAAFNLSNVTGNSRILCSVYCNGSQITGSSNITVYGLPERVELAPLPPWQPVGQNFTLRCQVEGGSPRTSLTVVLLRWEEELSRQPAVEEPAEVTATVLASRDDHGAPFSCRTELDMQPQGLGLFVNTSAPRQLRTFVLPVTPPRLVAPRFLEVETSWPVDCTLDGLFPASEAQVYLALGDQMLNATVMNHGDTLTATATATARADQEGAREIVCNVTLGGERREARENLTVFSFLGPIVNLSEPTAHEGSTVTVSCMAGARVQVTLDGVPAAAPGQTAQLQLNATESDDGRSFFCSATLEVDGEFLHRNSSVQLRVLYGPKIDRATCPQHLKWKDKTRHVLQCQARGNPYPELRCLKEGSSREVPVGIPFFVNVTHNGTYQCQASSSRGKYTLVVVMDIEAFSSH
Briefly: ELISA on coated baculovirus soluble ICAM-R. In general terms: An ELISA detects its analyte on a solid surface through an enzyme-linked reagent.

These are yes or no findings as the source states them, for the method shown. Some entries that bind do so weakly or less than the wild type.

The source of these data is patent publication US20030199423A1.

B1: recombinant ICR-8.1 antibody HuVHV/MuVK (antibody, human IgG4, V domains shown)
VH: QVQLVQSGAEVKKPGASVKVSCKASGYTFTDCIILWVRQAPGQGLEWMGKINPYFGTTTYNLKFKGRVTITVDTSTSTAYMELSSLRSEDTAVYYCARKEAYPDAMDYWGQGTLVTVSS
VL: DAVMTQTPLSLPVSLGDQASISCRSSQSLVHSNGDTYLHWYLQKPGQSPQLLIYKVSNRFSGVPDRFSGSGSGTDFTLKLSRVEAEDLGVYFCSQSTHVPYTFGGGTKLEIK
With B1, the binding entry is listed as “binds”.
